Record: PubChem BioAssay AID1159584 (Peter MacCallum Cancer Centre, 2016)

- Assay: 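Knock-downs that harm CDH1-null cells more than parental MCF10A cells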 (primary screen)
- Cell system: human MCF10A breast epithelial cells, parental and CDH1-null
- Knock-down reagent: siRNA against human genes
- Read-out: 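ATP luminescence (CellTiter-Glo) viability per line relative to mean mock wells over all plates, and the ratio of CDH1-null to parental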
- Direction: CDH1-null / parental viability ratio: higher = CDH1-null cells survive relatively better than parental; CDH1-null viability vs mock: higher = more viable CDH1-null cells
- Units: CDH1-null viability vs mock in fraction of mock
The whole screen tested about 18,000 reagents; shown is an unselected part. Not all columns of the deposit are shown. Not stated in the record: the amount of reagent, the time to read-out.

Against HSPA8 (GeneID 3312), the values are CDH1-null / parental viability ratio 1.04; CDH1-null viability vs mock 1.04. After knock-down of C2CD5 (GeneID 9847) the results were CDH1-null / parental viability ratio 1.23; CDH1-null viability vs mock 0.81. For RPS13 (GeneID 6207), the entry reads CDH1-null / parental viability ratio 1.81; CDH1-null viability vs mock 0.38. With knock-down of DDX17 (GeneID 10521) the results were CDH1-null / parental viability ratio 0.85; CDH1-null viability vs mock 0.7. Against SNAPC5 (GeneID 10302) the deposit lists CDH1-null / parental viability ratio 0.7; CDH1-null viability vs mock 0.6. For EFHD1 (GeneID 80303), the entry reads CDH1-null / parental viability ratio 0.72; CDH1-null viability vs mock 0.7.

Silencing of GGH (GeneID 8836) gave: CDH1-null / parental viability ratio 1.2; CDH1-null viability vs mock 0.95. TMX1 (GeneID 81542) gave CDH1-null / parental viability ratio 0.89; CDH1-null viability vs mock 0.94. After knock-down of TLR6 (GeneID 10333), the record shows CDH1-null / parental viability ratio 0.87; CDH1-null viability vs mock 0.71. TOPBP1 (GeneID 11073) scored CDH1-null / parental viability ratio 1.01; CDH1-null viability vs mock 0.73. NAA25 (GeneID 80018) showed CDH1-null / parental viability ratio 0.97; CDH1-null viability vs mock 0.64. With knock-down of BORCS8-MEF2B (GeneID 4207) the results were CDH1-null / parental viability ratio 1.06; CDH1-null viability vs mock 1.15.

Knock-down of GHSR (GeneID 2693) resulted in: CDH1-null / parental viability ratio 0.75; CDH1-null viability vs mock 0.4. Knock-down of FAM174B (GeneID 400451) resulted in: CDH1-null / parental viability ratio 0.76; CDH1-null viability vs mock 0.68. PTCD2 (GeneID 79810) scored CDH1-null / parental viability ratio 1.5; CDH1-null viability vs mock 0.66. Against SFTA2 (GeneID 389376), the entry reads CDH1-null / parental viability ratio 0.98; CDH1-null viability vs mock 1.02. UGT1A9 (GeneID 54600) scored CDH1-null / parental viability ratio 0.85; CDH1-null viability vs mock 0.62. POT1 (GeneID 25913) scored CDH1-null / parental viability ratio 0.63; CDH1-null viability vs mock 0.48.

Silencing of POU2F1 (GeneID 5451) gave: CDH1-null / parental viability ratio 0.88; CDH1-null viability vs mock 0.79. Silencing of PRR4 (GeneID 11272) resulted in: CDH1-null / parental viability ratio 0.97; CDH1-null viability vs mock 0.64. For SLK (GeneID 9748), the entry reads CDH1-null / parental viability ratio 0.78; CDH1-null viability vs mock 0.61. Against BRI3BP (GeneID 140707), the values are CDH1-null / parental viability ratio 1.02; CDH1-null viability vs mock 0.9. For LILRB1 (GeneID 10859) the deposit lists CDH1-null / parental viability ratio 1.14; CDH1-null viability vs mock 1.06. DNAJC25 (GeneID 548645) scored CDH1-null / parental viability ratio 0.83; CDH1-null viability vs mock 0.62.

Silencing of PCDHGB7 (GeneID 56099) came out at: CDH1-null / parental viability ratio 0.89; CDH1-null viability vs mock 0.82. Depletion of TMOD2 (GeneID 29767) resulted in: CDH1-null / parental viability ratio 1.46; CDH1-null viability vs mock 0.67. Against ACYP1 (GeneID 97) the deposit lists CDH1-null / parental viability ratio 0.96; CDH1-null viability vs mock 0.86. BEND7 (GeneID 222389) showed CDH1-null / parental viability ratio 1; CDH1-null viability vs mock 0.6. WIPI2 (GeneID 26100) scored CDH1-null / parental viability ratio 1.38; CDH1-null viability vs mock 0.66. Depletion of SKOR2 (GeneID 652991) gave: CDH1-null / parental viability ratio 0.89; CDH1-null viability vs mock 0.82.

Against ANO2 (GeneID 57101), the values are CDH1-null / parental viability ratio 1.07; CDH1-null viability vs mock 0.77. Knock-down of MGAT4D (GeneID 152586) resulted in: CDH1-null / parental viability ratio 0.93; CDH1-null viability vs mock 0.66. Silencing of MAT2A (GeneID 4144) resulted in: CDH1-null / parental viability ratio 1.94; CDH1-null viability vs mock 0.31. ARMC5 (GeneID 79798) showed CDH1-null / parental viability ratio 1.19; CDH1-null viability vs mock 0.96. Knock-down of RNF186 (GeneID 54546) gave: CDH1-null / parental viability ratio 0.91; CDH1-null viability vs mock 0.84.

Part of the list above, set out differently:
target gene | CDH1-null / parental viability ratio | CDH1-null viability vs mock
UGT1A9 (GeneID 54600) | 0.85 | 0.62
POT1 (GeneID 25913) | 0.63 | 0.48
